Laboratory results published in patent publication US20230365639A1, “DEFENSIN FRAGMENT DERIVED LIPOPEPTIDES FOR TREATMENT OF DRUG-RESISTANT MICROORGANISMS” (priority 2020, published 2023).
Not every detail of the peptide structures is certain; ends, links or a residue may be inferred. For some of these results: For at least one compound, name, drawing or mass did not settle the structure. Non-standard residues stand in square brackets, D forms with d. Residues, ends and D or L forms follow the SMILES beside them. ξ: configuration not given here. *: point of attachment. X1 = CCCCCCCCCCCCCCCC(=O)OCC(C*)OC(=O)CCCCCCCCCCCCCCC; Palmitoyl = CCCCCCCCCCCCCCCC(=O)*; AEEA = NCCOCCOCC(=O)O; ξC = NC(CS)C(=O)O

What was measured:
[1] = test system: several pathogenic bacteria; assay: Radial diffusion assay and MIC screening for antimicrobial activity; format: cell-based; settings: radial diffusion assay and MIC determinations
Experimental: (§1) Methods: Log-phase bacteria were cultivated for up to 18 hours in TSB (TSB, Becton Dickinson, USA), washed and diluted to 4×10^6 CFU in 10 ml agar. Bacteria were incubated in 10 ml of 10 mM sodium phosphate, pH 7.4, containing 0.3 mg/ml of TSB powder and 1% (w/v) low EEO-agarose (AppliChem). Lipopeptides were pipetted into punched wells and diffused into the gel for 3 hours at 37° C. After that, a nutrient-rich gel with 6% TSB (w/v) and 1% agarose in 10 mM sodium phosphate buffer was poured on top of the first gel and incubated for up to 24 hours at 37° C. Then the diameter of inhibition zones was measured.
(§2) Clinical isolates of A. baumannii DSM30007, E. faecium DSM2918, K. pneumoniae DSM30104 and P. aeruginosa DSM1117 were provided by the Department for Laboratory Medicine at Robert-Bosch-Hospital Stuttgart, Germany. C. rodentium DSM16636 and E. coli DSM8695 were obtained from the Deutsche Sammlung von Mikroorganismen and Zellkultur GmbH Braunschweig, Germany. Clinical isolates of A. baumannii LMG944, A. baumannii ECII, E. coli 6940, E. coli DSM682, E. faecium 11037 CHB, E. faecium 20218 CHB, K. pneumoniae 6727 and K. pneumoniae 6970 as well as S. aureus DSM20231, S. aureus ATCC25923, S. aureus ATCC33592, S. aureus ATCC43300, S. enterica serovar Typhimurium DSM554, P. aeruginosa ATCC27853, P. aeruginosa NRZ01677 and P. aeruginosa PAO1 were provided by the Institute of Medical Microbiology and Hygiene Tübingen, Germany. B. subtilis ypuA and S. aureus NCTC8325 were obtained from the Interfaculty Institute for Microbiology and Infection Medicine, Tübingen, Germany. The wild-type S. Typhimurium strain SL1344 harboring a chromosomally integrated luxCDABE cassette, which is confirmed by kanamycin resistance and the nalidixic acid and kanamycin-resistant, bioluminescent C. rodentium strain ICC180 were obtained from Helmholtz Centre for Infection Research Braunschweig, Germany.
(§3) All bacteria were stored in cryo vials (Roth) at −80° C. Before each experiment, inoculae from the frozen stocks were grown overnight at 37° C. on LB or Columbia blood agar plates (BD). […]

[2] = test system: S. Typhimurium; assay: Radial diffusion assay; format: cell-based
Experimental: as §1, §2, §3

[3] = test system: ypuA promoter; assay: ypuA promoter luciferase reporter gene assay; format: cell-based, Bacillus subitilis 1S34; settings: for ypuA promoter activation: B. subtilis luciferase reporter strain
Experimental: A specific bacterial reporter strain with the genetic background of Bacillus subitilis 1S34, carrying the promoter of the ypuA gene, fused to the firefly luciferase reporter gene, was used to identify cell envelope-related damage caused by treatment with antimicrobial compounds. Bacteria were cultured to an OD600 of 0.9 in LB broth with 5 μg/ml erythromycin at 37° C. and diluted to an OD600 of 0.02. Serial peptide dilutions (0.15-150 μM) were prepared in a microtiter plate and incubated with the adjusted bacterial suspension at 37° C. for 1 hour. Subsequently, citrate buffer (0.1 M, pH 5) containing 2 mM luciferin (Iris Biotech, Germany) was added and luminescence was measured using a microplate reader (Tecan, Switzerland).

[4] = test system: S. aureus; assay: Radial diffusion assay; format: cell-based
[5] = test system: S. Typhimurium DSM554; format: cell-based; settings: continuous serial passages
[6] = test system: S. aureus ATCC 25923; assay: Development of bacterial resistance, serial passages; format: cell-based; settings: sub-inhibitory concentrations, 25 passages

Structure (SMILES): CCCCCCCCCCCCCCCC(=O)N[C@@H](CCCNC(=N)N)C(=O)NCC(=O)N[C@@H](CCCCN)C(=O)N[C@@H](C)C(=O)N[C@@H](CCCCN)C(=O)N[C@@H](CS)C(=O)N[C@@H](CS)C(=O)N[C@@H](CCCCN)C(=O)O [Pam-2] (Palmitoyl-RGKAKCCK-OH)
- antimicrobial activity, inhibition of bacterial growth of the tested strains [1]: potent inhibition of bacterial growth
- inhibition of S. Typhimurium growth [2]: consistently inhibited
- ypuA promoter activation [3]: 2 fold

Structure (SMILES): CCCCCCCCCCCCCCCC(=O)NCCOCCOCC(=O)N[C@@H](CCCNC(=N)N)C(=O)NCC(=O)N[C@@H](CCCCN)C(=O)N[C@@H](C)C(=O)N[C@@H](CCCCN)C(=O)N[C@@H](CS)C(=O)N[C@@H](CS)C(=O)N[C@@H](CCCCN)C(=O)O [Pam-3] ({Palmitoyl-AEEA}-RGKAKCCK-OH)
- bacterial growth inhibition compared to the octapeptide [4]: on par with
- emergence of resistance, change of MIC during serial passages [5]: no resistant S. Typhimurium isolates emerged
- antimicrobial activity, inhibition of bacterial growth of the tested strains [1]: potent inhibition of bacterial growth
- inhibition of S. Typhimurium growth [2]: consistently inhibited
- bacterial growth inhibition compared to the octapeptide ([2]; S. Typhimurium): superior
- ypuA promoter activation [3]: 2 fold
- change of MIC during serial passages [6]: no significant increase

Structure (SMILES): CCCCCCCCCCCCCCCC(=O)NC(CSCC(COC(=O)CCCCCCCCCCCCCCC)OC(=O)CCCCCCCCCCCCCCC)C(=O)N[C@@H](CCCNC(=N)N)C(=O)NCC(=O)N[C@@H](CCCCN)C(=O)N[C@@H](C)C(=O)N[C@@H](CCCCN)C(=O)N[C@@H](CS)C(=O)N[C@@H](CS)C(=O)N[C@@H](CCCCN)C(=O)O (stereo partly shown) [Pam-4] (Palmitoyl-[ξC](X1)RGKAKCCK-OH)
- antimicrobial activity, inhibition of bacterial growth of the tested strains [1]: generally inactive
- cell envelope damage (ypuA reporter) [3]: little cell envelope damage

Structure (SMILES): CO[C@H]1/C=C/O[C@@]2(C)Oc3c(C)c(O)c4c(O)c(c(/C=N/N5CCN(C)CC5)c(O)c4c3C2=O)NC(=O)/C(C)=C\C=C\[C@H](C)[C@H](O)[C@@H](C)[C@@H](O)[C@@H](C)[C@H](OC(C)=O)[C@@H]1C [rifampicin, reference compound]
- change of MIC during serial passages [6]: started to rapidly increase after five passages
